Data published in the supplement of paper PMC4604168 (melanoma cell lines).
Some of the results follow. Many values rest on one well or one pass, so single values are uncertain.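 The apoptosis fraction was the count of cleaved-PARP antibody-stained nuclei relative to all DNA-stained nuclei, imaged in 1,536-well plates. Screening doses were set so most cells survived, and baseline and induced cleaved-PARP levels vary greatly across cell lines.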

Columns and labels:
Assay in all cases: cleaved PARP positive nuclei fraction relative to DMSO control; melanoma cells; higher = more apoptosis
Settings in all cases: library dose: low library concentration; 72 h
501Mel = system: 501Mel
A101D = system: A101D
A2058 = system: A2058
A375 = system: A375
C32 = system: C32
CBRC013 = system: CBRC013 (line from a melanoma biopsy)
CBRC014 = system: CBRC014 (line from a melanoma biopsy)
CBRC016 = system: CBRC016 (line from a melanoma biopsy)
CBRC017 = system: CBRC017 (line from a melanoma biopsy)

| Compound | cleaved PARP positive nuclei fraction (501Mel) [%] | cleaved PARP positive nuclei fraction (A101D) [%] | cleaved PARP positive nuclei fraction (A2058) [%] | cleaved PARP positive nuclei fraction (A375) [%] | cleaved PARP positive nuclei fraction (C32) [%] | cleaved PARP positive nuclei fraction (CBRC013) [%] | cleaved PARP positive nuclei fraction (CBRC014) [%] | cleaved PARP positive nuclei fraction (CBRC016) [%] | cleaved PARP positive nuclei fraction (CBRC017) [%] |
| --- | --- | --- | --- | --- | --- | --- | --- | --- | --- |
| Cc1ccc(NC(=O)c2cccc(N(C)C)c2)cc1NC(=O)c1ccc(O)cc1 + CCN(CC)CCCCNc1ncc2cc(-c3cc(OC)cc(OC)c3)c(NC(=O)NC(C)(C)C)nc2n1 [PD173074] (first compound 2 µM, partner dose 0.1 µM) | 107 | 80.6 | 123 | 156 | 178 | 174 | 127 | 90.5 | 86.6 |
| C[C@]1(c2nc3c(C(N)=O)cccc3[nH]2)CCCN1 [Veliparib] + CCc1ccc(CCOc2ccc(CC3SC(=O)NC3=O)cc2)nc1 [pioglitazone] (first compound 1.4 µM, partner dose 2 µM) | 43.8 | 99.6 | 148 | 78.7 | 115 | 192 | 116 | 61.7 | 86.1 |
| Cc1nc(Nc2ncc(C(=O)Nc3c(C)cccc3Cl)s2)cc(N2CCN(CCO)CC2)n1 [dasatanib] + COc1ccc(-c2ccc3c(N4CCOCC4)nc(N4C[C@@H](C)O[C@@H](C)C4)nc3n2)cc1CO [KU0063794] (first compound 0.004 µM, partner dose 0.02 µM) | 81.5 | 95.4 | 149 | 147 | 105 | 81.2 | 124 | 72.4 | 72.8 |
| NC(=O)Nc1cc(-c2cccc(F)c2)sc1C(=O)N[C@H]1CCCNC1 + COC(=O)c1sccc1S(=O)(=O)Nc1ccc(Nc2ccccc2)cc1OC [GSK0660] (first compound 0.02 µM, partner dose 1 µM) | 84.6 | 29.2 | 58.2 | 172 | 43.9 | 64.7 | 95 | 121 | 230 |
| CO[C@@H]1[C@H](N(C)C(=O)c2ccccc2)C[C@H]2O[C@]1(C)n1c3ccccc3c3c4c(c5c6ccccc6n2c5c31)C(=O)NC4 [Midostaurin] + CCc1ccc(CCOc2ccc(CC3SC(=O)NC3=O)cc2)nc1 [pioglitazone] (first compound 0.08 µM, partner dose 2 µM) | 32.9 | 197 | 101 | 276 | 178 | 36.6 | 98 | 91.9 | 174 |
| CC(C)(C)c1cnc(CSc2cnc(NC(=O)C3CCNCC3)s2)o1 + Cc1cc([N+](=O)[O-])ccc1NS(=O)(=O)c1cc(Cl)ccc1Cl [FH535] (first compound 0.01 µM, partner dose 1 µM) | 172 | 125 | 74 | 100 | 22 | 283 | 171 | 571 | 257 |
| Cc1ccc(NC(=O)c2cccc(N(C)C)c2)cc1NC(=O)c1ccc(O)cc1 + c1cc(-c2cnn3cc(-c4ccc(OCCN5CCCCC5)cc4)cnc23)ccn1 [Dorsomorphin] (first compound 2 µM, partner dose 0.4 µM) | 112 | 190 | 87.5 | 185 | 42.1 | 24.1 | 128 | 154 | 43.2 |
| Cc1cc(N2CCOCC2)cc2[nH]c(-c3c(NC[C@@H](O)c4cccc(Cl)c4)cc[nH]c3=O)nc12 + O=S(=O)(c1ccccc1)N(CC(F)(F)F)c1ccc(C(O)(C(F)(F)F)C(F)(F)F)cc1 [T0901317] (first compound 0.2 µM, partner dose 1.4 µM) | 80.6 | 126 | 81.7 | 154 | 68.1 | 163 | 120 | 94.9 | 77.5 |
| Cc1cc(N2CCOCC2)cc2[nH]c(-c3c(NC[C@@H](O)c4cccc(Cl)c4)cc[nH]c3=O)nc12 + COC(=O)c1sccc1S(=O)(=O)Nc1ccc(Nc2ccccc2)cc1OC [GSK0660] (first compound 0.2 µM, partner dose 1 µM) | 78.1 | 145 | 185 | 142 | 57.2 | 122 | 113 | 58.6 | 99 |
| C[C@@H]1CCN(C(=O)CC#N)C[C@@H]1N(C)c1ncnc2[nH]ccc12 + Cn1cc(/C=C2\C(=O)Nc3cccnc32)c2ccccc21 [GW441756] (first compound 1 µM, partner dose 0.4 µM) | 91.4 | 281 | 29.2 | 48.6 | 47.2 | 194 | 104 | 104 | 77.3 |
| CC1(C)NC(=O)N(c2ccc([N+](=O)[O-])c(C(F)(F)F)c2)C1=O [nilutamide] + Oc1cc(-c2nc(-c3ccccc3)[nH]c2-c2ccncc2)ccc1Cl [L779450] (first compound 1 µM, partner dose 0.2 µM) | 229 | 107 | 86.2 | 98.2 | 226 | 210 | 102 | 98 | 79.7 |
| OCCn1cc(-c2cnc3nnn(Cc4ccc5ncccc5c4)c3n2)cn1 + COC(=O)c1sccc1S(=O)(=O)Nc1ccc(Nc2ccccc2)cc1OC [GSK0660] (first compound 1 µM, partner dose 1 µM) | 178 | 65.8 | 70.9 | 128 | 122 | 57.5 | 102 | 24.4 | 94.8 |
| Cc1nc(Nc2ncc(C(=O)Nc3c(C)cccc3Cl)s2)cc(N2CCN(CCO)CC2)n1 [dasatanib] + CCCCCCCCCCCC1=C(O)C(=O)C=C(O)C1=O [Embelin] (first compound 0.004 µM, partner dose 1.2 µM) | 71.4 | 192 | 122 | 111 | 136 | 416 | 107 | 93.2 | 77.6 |
| CC(C)(C)c1cnc(CSc2cnc(NC(=O)C3CCNCC3)s2)o1 + c1cc(-c2cnn3cc(-c4ccc(OCCN5CCCCC5)cc4)cnc23)ccn1 [Dorsomorphin] (first compound 0.01 µM, partner dose 0.4 µM) | 41 | 122 | 120 | 235 | 113 | 182 | 110 | 76.1 | 198 |
| C[C@]1(c2nc3c(C(N)=O)cccc3[nH]2)CCCN1 [Veliparib] + Cn1cc(/C=C2\C(=O)Nc3cccnc32)c2ccccc21 [GW441756] (first compound 1.4 µM, partner dose 0.4 µM) | 67.3 | 59.5 | 43.2 | 23.4 | 290 | 106 | 108 | 40.9 | 71.4 |
| OCCn1cc(-c2cnc3nnn(Cc4ccc5ncccc5c4)c3n2)cn1 + Oc1cc(-c2nc(-c3ccccc3)[nH]c2-c2ccncc2)ccc1Cl [L779450] (first compound 1 µM, partner dose 0.2 µM) | 124 | 114 | 133 | 47.4 | 249 | 65.6 | 192 | 71.2 | 101 |
| NC(=O)Nc1cc(-c2cccc(F)c2)sc1C(=O)N[C@H]1CCCNC1 + CCN(CC)CCCCNc1ncc2cc(-c3cc(OC)cc(OC)c3)c(NC(=O)NC(C)(C)C)nc2n1 [PD173074] (first compound 0.02 µM, partner dose 0.1 µM) | 37.2 | 199 | 50.2 | 492 | 42.4 | 91.6 | 104 | 66.7 | 289 |
| COc1cc(Nc2ncc(F)c(Nc3ccc4c(n3)NC(=O)C(C)(C)O4)n2)cc(OC)c1OC [Tamatinib] + Oc1cc(-c2nc(-c3ccccc3)[nH]c2-c2ccncc2)ccc1Cl [L779450] (first compound 0.4 µM, partner dose 0.2 µM) | 109 | 101 | 81.7 | 816 | 54.6 | 71.4 | 68.2 | 91.7 | 38.4 |
| COc1cc(Nc2ncc(F)c(Nc3ccc4c(n3)NC(=O)C(C)(C)O4)n2)cc(OC)c1OC [Tamatinib] + O=c1cc(-c2cccc3c2Sc2ccccc2S3)oc(N2CCOCC2)c1 [KU55933] (first compound 0.4 µM, partner dose 1 µM) | 42.5 | 176 | 198 | 54.7 | 139 | 52.8 | 92.1 | 75.9 | 77.2 |
| Cn1c(Nc2ccc(C(F)(F)F)cc2)nc2cc(Oc3ccnc(-c4ncc(C(F)(F)F)[nH]4)c3)ccc21 + c1cc(-c2cnn3cc(-c4ccc(OCCN5CCCCC5)cc4)cnc23)ccn1 [Dorsomorphin] (first compound 0.08 µM, partner dose 0.4 µM) | 106 | 79.4 | 69.1 | 165 | 50.6 | 861 | 102 | 124 | 155 |
| NC(=O)Nc1cc(-c2cccc(F)c2)sc1C(=O)N[C@H]1CCCNC1 + Oc1cc(-c2nc(-c3ccccc3)[nH]c2-c2ccncc2)ccc1Cl [L779450] (first compound 0.02 µM, partner dose 0.2 µM) | 262 | 50.2 | 29.1 | 188 | 63.7 | 115 | 135 | 142 | 96.6 |
| Cc1cc(N2CCOCC2)cc2[nH]c(-c3c(NC[C@@H](O)c4cccc(Cl)c4)cc[nH]c3=O)nc12 + Cn1cc(/C=C2\C(=O)Nc3cccnc32)c2ccccc21 [GW441756] (first compound 0.2 µM, partner dose 0.4 µM) | 64.9 | 37.9 | 275 | 104 | 67.8 | 182 | 91.6 | 37.6 | 81.3 |
| Cc1nc(Nc2ncc(C(=O)Nc3c(C)cccc3Cl)s2)cc(N2CCN(CCO)CC2)n1 [dasatanib] + O=c1cc(-c2cccc3c2Sc2ccccc2S3)oc(N2CCOCC2)c1 [KU55933] (first compound 0.004 µM, partner dose 1 µM) | 174 | 67.1 | 94.5 | 122 | 305 | 50.3 | 96.5 | 143 | 110 |
| CO[C@@H]1[C@H](N(C)C(=O)c2ccccc2)C[C@H]2O[C@]1(C)n1c3ccccc3c3c4c(c5c6ccccc6n2c5c31)C(=O)NC4 [Midostaurin] + O=C1NC(=O)/C(=C/c2ccc(-c3ccc(F)cc3O)o2)S1 [AS252424] (first compound 0.08 µM, partner dose 1 µM) | 145 | 80.4 | 101 | 104 | 177 | 47.4 | 116 | 113 | 85.6 |

A stretch from the list above:

| Compound | cleaved PARP positive nuclei fraction (501Mel) [%] | cleaved PARP positive nuclei fraction (A101D) [%] | cleaved PARP positive nuclei fraction (A2058) [%] | cleaved PARP positive nuclei fraction (A375) [%] | cleaved PARP positive nuclei fraction (C32) [%] | cleaved PARP positive nuclei fraction (CBRC013) [%] | cleaved PARP positive nuclei fraction (CBRC014) [%] | cleaved PARP positive nuclei fraction (CBRC016) [%] | cleaved PARP positive nuclei fraction (CBRC017) [%] |
| --- | --- | --- | --- | --- | --- | --- | --- | --- | --- |
| OCCn1cc(-c2cnc3nnn(Cc4ccc5ncccc5c4)c3n2)cn1 + COC(=O)c1sccc1S(=O)(=O)Nc1ccc(Nc2ccccc2)cc1OC [GSK0660] (first compound 1 µM, partner dose 1 µM) | 178 | 65.8 | 70.9 | 128 | 122 | 57.5 | 102 | 24.4 | 94.8 |
| Cc1nc(Nc2ncc(C(=O)Nc3c(C)cccc3Cl)s2)cc(N2CCN(CCO)CC2)n1 [dasatanib] + CCCCCCCCCCCC1=C(O)C(=O)C=C(O)C1=O [Embelin] (first compound 0.004 µM, partner dose 1.2 µM) | 71.4 | 192 | 122 | 111 | 136 | 416 | 107 | 93.2 | 77.6 |
| CC(C)(C)c1cnc(CSc2cnc(NC(=O)C3CCNCC3)s2)o1 + c1cc(-c2cnn3cc(-c4ccc(OCCN5CCCCC5)cc4)cnc23)ccn1 [Dorsomorphin] (first compound 0.01 µM, partner dose 0.4 µM) | 41 | 122 | 120 | 235 | 113 | 182 | 110 | 76.1 | 198 |
| C[C@]1(c2nc3c(C(N)=O)cccc3[nH]2)CCCN1 [Veliparib] + Cn1cc(/C=C2\C(=O)Nc3cccnc32)c2ccccc21 [GW441756] (first compound 1.4 µM, partner dose 0.4 µM) | 67.3 | 59.5 | 43.2 | 23.4 | 290 | 106 | 108 | 40.9 | 71.4 |
